Part of at least one peptide drawing is inferred or uncertain, most often the ends.
Assay: Stability of radioligands in PBS buffer (radio-HPLC)
Type: physicochemical
Settings: PBS buffer pH=7.4, 37° C.
Procedure: The purpose of this experiment was to test the stability of the radioligands under buffer conditions simulating the physiological environment. This stability is a prerequisite for further animal experiments.
(§1) 1. ^68Ga-SDYD01: ^68Ga-SDYD01 was added to PBS buffer (pH=7.4) and incubated at 37° C. The mixture samples were taken for radio-HPLC analysis after 0.5 hours, 1 hour, and 2 hours of incubation. The stability of ^68Ga-SDYD01 in PBS buffer: the radiochemical purities of ^68Ga-SDYD01 after incubation in PBS for 0.5 hours, 1 hour, and 2 hours were 98%, 97%, and 97%, respectively (FIG. 4).
(§2) 2. ^177Lu-SDYD01: ^177Lu-SDYD01 was added to PBS buffer (pH=7.4) and incubated at 37° C. The mixture samples were taken for radio-HPLC analysis after 24 hours, 48 hours, and 120 hours of incubation. The stability of ^177Lu-SDYD01 in PBS buffer: the radiochemical purities of ^177Lu-SDYD01 after incubation in PBS for 24 hours, 48 hours, and 120 hours were 97%, 96%, and 94%, respectively (FIG. 5).
as §1, with “^68Ga-SDYD02: ^68Ga-SDYD02” for “^68Ga-SDYD01: ^68Ga-SDYD01”, “^68Ga-SDYD02” for “^68Ga-SDYD01”, “96%, 95%” for “98%, 97%,”, “93%,” for “97%,”, “10).” for “4).”
as §2, with “^177Lu-SDYD02: ^177Lu-SDYD02” for “^177Lu-SDYD01: ^177Lu-SDYD01”, “^177Lu-SDYD02” for “^177Lu-SDYD01”, “95%, 91%” for “97%, 96%,”, “87%,” for “94%,”, “11).” for “5).”
as §1, with “1. ^68Ga-SDYD05: ^68Ga-SDYD05” for “1. ^68Ga-SDYD01: ^68Ga-SDYD01”, “of ^68Ga-SDYD05” for “of ^68Ga-SDYD01”, “98%, 96%” for “98%, 97%,”, “and 95%,” for “and 97%,”, “(FIG. 16).” for “(FIG. 4).”
as §2, with “^177Lu-SDYD05: ^177Lu-SDYD05” for “^177Lu-SDYD01: ^177Lu-SDYD01”, “^177Lu-SDYD05” for “^177Lu-SDYD01”, “97%, 96% and” for “97%,”, “96%,” for “96%, and 94%,”, “17).” for “5).”
1. ^68Ga-SDYD06: ^68Ga-SDYD06 was added to PBS buffer (pH=7.4) and incubated at 37° C. The mixture samples were taken for radio-HPLC analysis after 0.5, 1, and 2 hours of incubation. The stability of ^68Ga-SDYD06 in PBS buffer: the radiochemical purities of ^68Ga-SDYD06 after incubation in PBS for 0.5 hours, 1 hour, and 2 hours were 96%, 94% and 93%, respectively (FIG. 22).
2. ^177Lu-SDYD06: ^177Lu-SDYD06 was added to PBS buffer (pH=7.4) and incubated at 37° C. The mixture samples were taken for radio-HPLC analysis after 24 hours, 48 hours, and 120 hours of incubation.
1. ^68Ga-SDYD03: ^68Ga-SDYD03 was added to PBS buffer (pH=7.4) and incubated at 37° C. The mixture samples were taken for radio-HPLC analysis after 0.5 hours, 1 hour, and 2 hours of incubation. The stability of ^68Ga-SDYD03 PBS in PBS buffer: the radiochemical purities of ^68Ga-SDYD03 after incubation in PBS for 0.5 hours, 1 hour, and 2 hours were 96%, 96% and 95%, respectively (FIG. 27).
as §2, with “^177Lu-SDYD03: ^177Lu-SDYD03” for “^177Lu-SDYD01: ^177Lu-SDYD01”, “^177Lu-SDYD03” for “^177Lu-SDYD01”, “are 99%, 96%” for “were 97%, 96%,”, “28). […]” for “5).”

## CN1C(=O)[C@@H](Cc2ccc(O)cc2)NC(=O)CNC(=O)[C@H](Cc2ccc3ccccc3c2)NC(=O)[C@H](CCCNC(=N)N)NC(=O)[C@H]1CCCNC(=O)c1ccc(CNC(=O)[C@H](CCCCNC(=O)CN2CCN(CC(=O)O)CCN(CC(=O)O)CCN(CC(=O)O)CC2)NC(=O)CCC(=O)NCCOCCOCC(=O)NCCOCCOCC(=O)N2CCN(CCCOc3ccc4nccc(C(=O)NCC(=O)N5CC(F)(F)C[C@H]5C#N)c4c3)CC2)cc1 [^177Lu-SDYD05, metal not drawn]
24 hours
  radiochemical purity after incubation in PBS: 97%
48 hours
  radiochemical purity after incubation in PBS: 96%
120 hours
  radiochemical purity after incubation in PBS: 96%

Source: patent US20260069728A1, “MULTI-TARGETING COMPOUND AND USE THEREOF” (Chengdu Shetai Medical Technology Co., Ltd., priority 2023, published 2026)
